Binding data for one substance are collected here from PMC7356028.

By UniProt entry, the sequences of proteins in these tests, tags left out.
UniProt Q92621: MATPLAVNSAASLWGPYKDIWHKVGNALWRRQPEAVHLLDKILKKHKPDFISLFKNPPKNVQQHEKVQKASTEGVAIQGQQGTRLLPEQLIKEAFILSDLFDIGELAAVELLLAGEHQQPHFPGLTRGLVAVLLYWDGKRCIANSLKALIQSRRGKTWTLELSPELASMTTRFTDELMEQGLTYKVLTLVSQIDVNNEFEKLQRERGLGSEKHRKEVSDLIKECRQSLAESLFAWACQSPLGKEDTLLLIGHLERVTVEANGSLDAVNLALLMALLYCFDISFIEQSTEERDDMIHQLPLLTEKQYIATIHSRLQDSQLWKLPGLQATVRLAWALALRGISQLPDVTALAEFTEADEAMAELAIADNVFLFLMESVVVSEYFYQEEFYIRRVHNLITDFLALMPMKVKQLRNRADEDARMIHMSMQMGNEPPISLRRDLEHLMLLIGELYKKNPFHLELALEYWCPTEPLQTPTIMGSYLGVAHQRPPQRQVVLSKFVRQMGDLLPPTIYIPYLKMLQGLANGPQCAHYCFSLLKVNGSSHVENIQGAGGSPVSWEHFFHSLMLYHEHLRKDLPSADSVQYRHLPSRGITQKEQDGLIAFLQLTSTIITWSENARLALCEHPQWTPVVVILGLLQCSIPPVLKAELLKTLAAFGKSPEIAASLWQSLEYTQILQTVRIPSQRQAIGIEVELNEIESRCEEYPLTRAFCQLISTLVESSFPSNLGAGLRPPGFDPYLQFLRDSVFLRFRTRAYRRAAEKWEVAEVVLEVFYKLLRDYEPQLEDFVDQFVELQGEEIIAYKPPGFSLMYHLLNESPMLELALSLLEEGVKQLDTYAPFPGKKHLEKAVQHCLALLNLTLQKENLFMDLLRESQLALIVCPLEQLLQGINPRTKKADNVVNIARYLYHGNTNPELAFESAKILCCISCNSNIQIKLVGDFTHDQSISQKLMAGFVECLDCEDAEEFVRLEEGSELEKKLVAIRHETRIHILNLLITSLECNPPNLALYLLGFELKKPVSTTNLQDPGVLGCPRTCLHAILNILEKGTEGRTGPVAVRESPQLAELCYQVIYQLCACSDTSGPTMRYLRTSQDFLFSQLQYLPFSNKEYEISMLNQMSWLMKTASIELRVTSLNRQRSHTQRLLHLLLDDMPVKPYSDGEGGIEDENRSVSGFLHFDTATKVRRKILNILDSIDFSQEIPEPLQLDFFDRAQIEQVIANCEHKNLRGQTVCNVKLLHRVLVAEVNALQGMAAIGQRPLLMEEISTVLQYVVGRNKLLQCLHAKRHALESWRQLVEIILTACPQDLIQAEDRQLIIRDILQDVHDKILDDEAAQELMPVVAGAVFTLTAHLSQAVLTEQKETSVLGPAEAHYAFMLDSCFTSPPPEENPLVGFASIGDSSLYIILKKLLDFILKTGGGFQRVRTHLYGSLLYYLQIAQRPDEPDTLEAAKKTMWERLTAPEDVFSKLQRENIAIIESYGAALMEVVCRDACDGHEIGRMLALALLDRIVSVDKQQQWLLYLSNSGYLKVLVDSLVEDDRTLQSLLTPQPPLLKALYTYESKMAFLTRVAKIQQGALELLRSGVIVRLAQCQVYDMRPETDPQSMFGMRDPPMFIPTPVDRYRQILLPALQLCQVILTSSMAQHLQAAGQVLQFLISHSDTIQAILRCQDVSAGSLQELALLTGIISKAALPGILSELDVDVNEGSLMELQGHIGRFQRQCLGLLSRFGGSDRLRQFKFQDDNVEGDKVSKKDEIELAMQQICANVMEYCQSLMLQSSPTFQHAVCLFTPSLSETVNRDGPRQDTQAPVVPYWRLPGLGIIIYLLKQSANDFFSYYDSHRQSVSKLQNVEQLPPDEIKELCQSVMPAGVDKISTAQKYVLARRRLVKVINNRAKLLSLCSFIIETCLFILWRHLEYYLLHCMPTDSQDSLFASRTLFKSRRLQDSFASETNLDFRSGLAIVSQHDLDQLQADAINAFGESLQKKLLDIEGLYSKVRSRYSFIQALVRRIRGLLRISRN

These are yes or no findings as the source states them, for the method shown. In cells and extracts the contact can be indirect. Some results given as binding are weak or reduced against the parent protein; the word gives no strength. Sequences can lack the tags named with a protein.

Holding throughout (assay): co-IP; GFP-fused Nup93 fragments expressed in HEK293F; 1 mg of lysate supernatant incubated 4 h with glutathione beads pre-bound with GST-tagged anti-GFP nanobody; washed thrice with lysis buffer (1X DPBS, 0.2% tween 20), eluted with reduced glutathione; blots probed with anti-Nup205 and anti-GFP; the paper calls it immunoprecipitation and in vitro pull-down
The target of assay [1] is T1, GFP-fused human Nup93 R2 fragment (96-150) (human) (UniProt Q8N1F7).
T1 sequence: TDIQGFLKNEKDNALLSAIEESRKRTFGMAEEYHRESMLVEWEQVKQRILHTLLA

The target in assay [2] is T2, GFP-fused human Nup93 N-terminal region (1-150) (human) (UniProt Q8N1F7).
T2 sequence: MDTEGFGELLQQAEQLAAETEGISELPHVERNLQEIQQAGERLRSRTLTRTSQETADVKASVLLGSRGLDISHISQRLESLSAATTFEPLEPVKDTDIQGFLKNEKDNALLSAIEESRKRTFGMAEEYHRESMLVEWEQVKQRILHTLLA

The target in assay [3] is T3, GFP-fused human Nup93 region (176-819) (human) (UniProt Q8N1F7).
T3 sequence: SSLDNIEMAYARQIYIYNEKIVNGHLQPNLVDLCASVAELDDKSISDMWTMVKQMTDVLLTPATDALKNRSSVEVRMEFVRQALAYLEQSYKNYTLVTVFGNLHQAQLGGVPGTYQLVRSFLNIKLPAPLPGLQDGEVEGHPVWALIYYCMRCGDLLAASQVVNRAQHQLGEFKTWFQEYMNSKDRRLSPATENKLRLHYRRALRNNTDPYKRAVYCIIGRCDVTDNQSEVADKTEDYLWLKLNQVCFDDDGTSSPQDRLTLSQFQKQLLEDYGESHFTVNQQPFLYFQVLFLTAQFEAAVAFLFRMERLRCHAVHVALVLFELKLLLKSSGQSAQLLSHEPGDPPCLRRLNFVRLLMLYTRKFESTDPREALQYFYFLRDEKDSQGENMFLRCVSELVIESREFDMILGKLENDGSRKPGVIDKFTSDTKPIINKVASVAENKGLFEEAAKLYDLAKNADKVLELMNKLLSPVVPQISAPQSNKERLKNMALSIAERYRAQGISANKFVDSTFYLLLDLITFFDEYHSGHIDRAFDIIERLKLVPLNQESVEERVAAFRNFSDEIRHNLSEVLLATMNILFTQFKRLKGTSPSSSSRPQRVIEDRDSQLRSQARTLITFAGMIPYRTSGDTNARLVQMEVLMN

As for “endogenous Nup205 (from UniProt Q92621 1-2012)”, the results for the binding entry in assay [1], in assay [2] and in assay [3] were “binds”, “binds” and “binds weakly”, respectively.
